# Measured values published in patent US20040235012A1, “Method of detecting antibiotic resistance in microorganisms” (priority 2003, published 2004).
# System: MRSA and borderline S. aureus strains
# Assay: Screening of MRSA and borderline S. aureus strains on chromogenic agar supplemented with a β-lactam
# Type: cell-based, Staphylococcus aureus
# Conditions: for Sensitivity: 35-37 °C, 24 hours
# [1] = oxacillin at 4 ug/ml in chromogenic agar, 22 strains
Structure (SMILES),"Sensitivity (ceftazidime at 16 ug/ml in chromogenic agar, 21 strains) [percentage]",Accuracy [1] [percentage],Negative Predictive Value [1] [percentage],Positive Predictive Value [1] [percentage],Specificity [1] [percentage],Sensitivity [1] [percentage]
"CC(C)(O/N=C(\C(=O)N[C@@H]1C(=O)N2C(C(=O)[O-])=C(C[n+]3ccccc3)CS[C@H]12)c1csc(N)n1)C(=O)O [CAZ, ceftazidime]",33.3,–,–,–,–,–
"Cc1onc(-c2ccccc2)c1C(=O)N[C@@H]1C(=O)N2[C@@H]1SC(C)(C)[C@@H]2C(=O)O [OX, oxacillin]",–,27.3,23.8,100,100,5.9
